Experimental data from article PMC11677128.
Construct, isoform or probe ends are uncertain for at least one entry. Negatives hold for the conditions tested.

Test system: GST-SlUPA-like (Solanum lycopersicum)
Assay: EMSA
Conditions: Purified GST-SlUPA-like with biotin probes, polyacrylamide gel, LightShift EMSA Optimization & Control Kit (Thermo); pH and temperature not stated; recombinant protein; protein details: N-terminal GST (pGEX-4T-1)

Sequence	binding result
ATTAACAGGCAGTAACAATTCAGTTGAAAGATTTTTGAAGAATATTTTAG (double strand) [SlGID2 promoter motif 1 probe (Bio-P/Cold-P)]	no binding
AAGTTAAAAGCCAAAGTTATCAACTGACGTCAATTTAAAGGTCATGTTTA (double strand) [SlGID2 promoter motif 2 probe (Bio-P/Cold-P)]	binds
